Measured values reported in paper PMC5377257.
These are yes or no findings as the source states them, for the method shown. Binding seen in cells or lysates may run through a third protein. Binding can be weak; no strength is given.

By UniProt entry, the sequences of proteins in these tests, tags left out. Where a name states a change or a piece, a line headed by the entry shows the natural chain unless it says otherwise.
UniProt Q9UEE9: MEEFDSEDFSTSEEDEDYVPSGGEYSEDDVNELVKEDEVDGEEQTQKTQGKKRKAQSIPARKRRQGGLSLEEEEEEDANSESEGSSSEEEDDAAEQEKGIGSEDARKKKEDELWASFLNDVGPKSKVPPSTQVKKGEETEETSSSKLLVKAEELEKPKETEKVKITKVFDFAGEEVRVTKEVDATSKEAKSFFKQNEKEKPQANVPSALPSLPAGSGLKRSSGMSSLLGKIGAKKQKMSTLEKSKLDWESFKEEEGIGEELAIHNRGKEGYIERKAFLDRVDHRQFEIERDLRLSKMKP
UniProt A0A0B7PL88: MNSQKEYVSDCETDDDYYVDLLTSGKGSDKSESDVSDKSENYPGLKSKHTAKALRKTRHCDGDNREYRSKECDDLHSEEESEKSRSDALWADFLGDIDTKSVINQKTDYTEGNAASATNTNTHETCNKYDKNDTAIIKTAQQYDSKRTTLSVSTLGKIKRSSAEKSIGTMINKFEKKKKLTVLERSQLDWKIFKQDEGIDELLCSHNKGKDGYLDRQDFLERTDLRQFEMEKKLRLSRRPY

Target: V5-CFDP1 (Cranio Facial Development Protein 1 tagged with V5) (human) (UniProt Q9UEE9)
Experiment: co-IP; cleared lysates of transfected HeLa cells (IP buffer: 50 mM Tris-HCl pH 7.5, 150 mM NaCl, 1% NP-40, 5 mM EGTA, 5 mM EDTA, 20 mM NaF) immunoprecipitated O/N at 4 °C with mouse anti-V5 antibody and protein A/G agarose; Ms IgG as negative control; Western blot

binding: binds
Substance: Flag-YETI (from UniProt A0A0B7PL88)
